Reference: PubChem BioAssay AID1794845 (National Center for Advancing Translational Sciences (NCATS), 2023)
Out of some 6,900 compounds screened, fewer than 10 were called active. Calls follow the shape of the dose curve; as a rule, active = well fitted curve in the direction sought with a large enough effect; inconclusive = small, poorly fitted or top-dose-only effect, or another doubt; inactive = no such curve, though single readings can be large or run the other way. Some of the results follow.

Protein sequences, listed by entry. Tags and fused reporters are not part of them. Lines headed by an entry give the natural chain unless they say otherwise; changes in a name come on top.
UniProt C7C422: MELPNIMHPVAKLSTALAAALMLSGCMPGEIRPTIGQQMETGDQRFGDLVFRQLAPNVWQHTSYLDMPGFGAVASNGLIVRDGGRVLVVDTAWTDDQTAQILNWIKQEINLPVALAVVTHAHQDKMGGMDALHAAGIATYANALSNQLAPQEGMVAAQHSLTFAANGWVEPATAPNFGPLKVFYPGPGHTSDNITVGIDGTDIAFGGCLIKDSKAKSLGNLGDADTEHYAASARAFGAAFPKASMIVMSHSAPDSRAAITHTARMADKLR

molecular target: Metallo-beta-lactamase type 2 (Klebsiella pneumoniae) (UniProt C7C422); assay: qHTS to identify inhibitors of the New Delhi Metallo-beta-lactamase (NDM): primary screen against the NCATS Gemini Collection; conditions: NDM-1 enzyme, meropenem hydrolysis, absorbance 300 nm; at 38.4 µM (top of the series) unless noted; also: % of control where 0% means no effect
Summary of the method: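 Meropenem hydrolysis (50 uM final) by 2 nM NDM-1 read as 300 nm absorbance after 30 min, following >30 min compound–enzyme preincubation in HEPES pH 7.0 with 1 uM ZnSO4 and 0.01% Tween20.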

Question: `Cn1cc(CN2C[C@H](C(=O)NCc3ccccc3)C[C@H]2c2cccc(C(F)(F)F)c2)cn1` was tested. Which activity % (negative = inhibition) did it give?
Answer: inactive: 10.4%

Question: `c1c(-c2nc(C3CCOC3)no2)sc2c1CCCC2` (centres undefined) was tested. Which activity % (negative = inhibition) did it give?
Answer: inactive: 23.4%

Question: Which activity % (negative = inhibition) does the source give for `Cc1[nH]c(=O)[nH]c(=O)c1CC(=O)N[C@@H]1COCC[C@@H]1OCc1ccccc1` here?
Answer: inactive: 0.56%

Question: `CCn1cc(C(=O)N[C@@H]2CN(c3ncccn3)C[C@H]2CO)cn1` was tested. Which activity % (negative = inhibition) did it give?
Answer: inactive: 33.2%

Question: For `COC[C@@H]1[C@H](C(=O)N2CCN(Cc3ccccc3)CC2)CCC(=O)N1C`, which activity % (negative = inhibition) is on record?
Answer: inactive: 25.1%

Question: For `COc1cc(Cl)ccc1C(=O)N1CC[C@@](C)(O)[C@@H](O)C1`, which activity % (negative = inhibition) is on record?
Answer: inactive: -1.7%

Question: Which activity % (negative = inhibition) does the source give for `CCC(C)NC(=O)CN1CN(c2ccccc2)C2(CCN(C(=O)Nc3ccccc3C)CC2)C1=O` (centres undefined) here?
Answer: inactive: -1.56%

Question: `O=C(c1ccco1)N1CCC2(CCN(CCCn3cccn3)CC2)C(CO)C1` (centres undefined) was tested. Which activity % (negative = inhibition) did it give?
Answer: inactive: 0.293%

Question: For `COc1ccc(NC(=O)C[C@@H]2C[C@@H](C(C)C)[C@H](CC#N)C=C2C)cn1`, which activity % (negative = inhibition) is on record?
Answer: inactive: 2.37% [at 57.5 µM]

Question: For `CC(C)CN1CCN(C(=O)c2ccc3c(c2)CC(=O)N3Cc2ccc(F)cc2)CC1`, which activity % (negative = inhibition) is on record?
Answer: inactive: -3.45%

Question: With `COCCCN1CC2(CCN(C(=O)c3cc(C(C)C)oc3C)CC2)CC1=O` as the compound, how does the activity % (negative = inhibition) read?
Answer: inactive: 22.9%

Question: How did the activity % (negative = inhibition) turn out when `CC1(C)C(=O)Nc2ccc(S(=O)(=O)N3CCCC(c4nn[nH]n4)C3)cc21` (centres undefined) was run?
Answer: inactive: -0.875%

Question: For `C=CCCC(CN1CCOCC1)Oc1ccc(Cn2ccnc2)cn1` (centres undefined), which activity % (negative = inhibition) is on record?
Answer: inactive: 0.493%

Question: `Cc1nnc2n1CCC(NC(=O)c1cccn1C)CC2` (centres undefined) was tested. Which activity % (negative = inhibition) did it give?
Answer: inactive: 0.667%

Question: How did the activity % (negative = inhibition) turn out when `CC(C)C(=O)N1CCC(NCCOc2ccccc2Cl)CC1` was run?
Answer: inactive: 12.6%

Question: `CCCCc1cc(C[C@@H]2C[C@H](NC(=O)NCC)C2(C)C)no1` was tested. Which activity % (negative = inhibition) did it give?
Answer: inactive: 1.89% [at 57.5 µM]

Question: How did the activity % (negative = inhibition) turn out when `CN(Cc1cccn1C)C(=O)c1ccccc1F` was run?
Answer: inactive: -1.7% [at 57.5 µM]

Question: With `Cc1nnc2n1CCC(NC(=O)c1cnccn1)CC2` (centres undefined) as the compound, how does the activity % (negative = inhibition) read?
Answer: inactive: 5.38%

Question: How did the activity % (negative = inhibition) turn out when `COc1ccc(C(=O)N2CCCCC(NC(=O)NCc3ccco3)C2)cc1` (centres undefined) was run?
Answer: inactive: -2.02%

Question: Which activity % (negative = inhibition) does the source give for `Cc1c(C(=O)N[C@@H]2COCC[C@H]2Oc2ccc(C(N)=O)cc2)cnn1C` here?
Answer: inactive: -4.06%

Question: With `CN(C)[C@@H]1CN(Cc2ccncc2F)CC[C@@H]1CNC(=O)C1CC1` as the compound, how does the activity % (negative = inhibition) read?
Answer: inactive: 1.29%

Question: With `O=C(Cc1ccsc1)NCC1CCCCC(=O)N1` (centres undefined) as the compound, how does the activity % (negative = inhibition) read?
Answer: inactive: -4.46%

Question: `CCN1CCN(C(=O)c2cc(-c3ccccc3OC)c3nncn3n2)CC1` was tested. Which activity % (negative = inhibition) did it give?
Answer: inactive: 9.34% [at 57.5 µM]

Question: With `CN1CCN(C(=O)c2ccc3nnc(C4CCCC4)n3c2)CC1` as the compound, how does the activity % (negative = inhibition) read?
Answer: inactive: 7.62% [at 57.5 µM]

Question: `CO[C@@H]1CO[C@H]2[C@@H]1OC[C@@H]2NC(=S)Nc1ccccc1` was tested. Which activity % (negative = inhibition) did it give?
Answer: inactive: -0.634% [at 77.1 µM]

Question: For `COC[C@@H]1CN(S(=O)(=O)c2ccccc2C)C[C@H]1c1nc(C)no1`, which activity % (negative = inhibition) is on record?
Answer: inactive: 14.3%

Question: For `CCCN(Cc1ccc(F)cc1)C(=O)c1cnc(-c2ccc(C)cc2)[nH]c1=O`, which activity % (negative = inhibition) is on record?
Answer: inactive: 21.5%

Question: For `CN(C)[C@@H]1C[C@H](CO)[C@@H](O)[C@H]1O`, which activity % (negative = inhibition) is on record?
Answer: inactive: -0.471% [at 77.1 µM]

Question: Which activity % (negative = inhibition) does the source give for `O=C(c1cc(-c2ccc(Cl)cc2)c2nncn2n1)N1CCOCC1` here?
Answer: inactive: 25.9% [at 57.5 µM]

Question: How did the activity % (negative = inhibition) turn out when `O=C(CCc1ccccc1)N1CCNc2cnc(Nc3cccnc3)nc2C1` was run?
Answer: inactive: 10.1% [at 57.5 µM]

Question: `O=C(O)c1ccnc(-c2ccnc(NCCN3CCCCC3CO)n2)c1` (centres undefined) was tested. Which activity % (negative = inhibition) did it give?
Answer: inactive: 33.8%

Question: `CCC1(C(=O)NCCN2CCOCC2)CCCCC(=O)N1` (centres undefined) was tested. Which activity % (negative = inhibition) did it give?
Answer: inactive: -6.78%

Question: With `CCCn1ccnc1-c1c(-c2ccccc2)ncn1CCCC(=O)OC` as the compound, how does the activity % (negative = inhibition) read?
Answer: inactive: 8.89%

Question: `O=C(c1cn[nH]c1)N1CC2(CN(Cc3cccc(Cl)c3)CC2COc2ccccc2)C1` (centres undefined) was tested. Which activity % (negative = inhibition) did it give?
Answer: inactive: -3.77% [at 57.5 µM]

Question: With `COc1ccc(-c2nc3c(c(-c4ccccc4)n2)CN(C(=O)c2ccc(F)cc2)CC3)cc1` as the compound, how does the activity % (negative = inhibition) read?
Answer: inactive: 19.3%

Question: For `O=C(NCCc1csc(-c2ncccn2)n1)C1NCCc2[nH]cnc21` (centres undefined), which activity % (negative = inhibition) is on record?
Answer: inactive: 0.698%

Question: `COc1ccc2c(c1)C(COCc1ccc(S(C)(=O)=O)cc1)CC(C)(C)O2` (centres undefined) was tested. Which activity % (negative = inhibition) did it give?
Answer: inactive: 2.55%

Question: For `COCc1nc(C2CC(NC(=O)c3nn(C)c4c3CCCC4)C2)cc(=O)[nH]1` (centres undefined), which activity % (negative = inhibition) is on record?
Answer: inactive: 7.05%

Question: For `COc1ccc(CC(=O)N2CCCN(c3cc(-c4ccccc4)[nH]n3)CC2)cc1`, which activity % (negative = inhibition) is on record?
Answer: inactive: 8.85%

Question: Which activity % (negative = inhibition) does the source give for `CCCN(C)C(=O)c1c(-c2ccc(F)cc2)noc1[C@H](C)O` here?
Answer: inactive: -10.9% [at 57.5 µM]

Question: Which activity % (negative = inhibition) does the source give for `O=C(Nc1n[nH]c(Cc2ccccc2)n1)N1CCN(C(=O)c2ccco2)CC1` here?
Answer: inactive: -0.879%

Question: Which activity % (negative = inhibition) does the source give for `CC(=O)N1Cc2ccccc2CC2(CCCN2Cc2ccccn2)C1` (centres undefined) here?
Answer: inactive: 13.2%

Question: Which activity % (negative = inhibition) does the source give for `O=S(=O)(c1ccc(F)cc1)N1CCC(Oc2ccc(-c3noc(C4CC4)n3)cc2)C1` (centres undefined) here?
Answer: inactive: -2.7%

Question: For `Cc1ncoc1C(=O)N1CCC(N2CCCC(C(=O)N3CCCC3)C2)CC1` (centres undefined), which activity % (negative = inhibition) is on record?
Answer: inactive: 24.7%

Question: Which activity % (negative = inhibition) does the source give for `Cc1nn2c(c1-c1ccccc1C(C)C)N(Cc1ccc(C(=O)O)s1)CCC2` here?
Answer: inactive: 25.9% [at 57.5 µM]

Question: `COc1cc2c(cc1-c1ccc(S(C)(=O)=O)cc1)OCC(C)(C)CC2CO` (centres undefined) was tested. Which activity % (negative = inhibition) did it give?
Answer: inactive: 9.6%

Question: With `Cc1noc(C)c1-c1cc(-c2ccncc2)cn2cncc12` as the compound, how does the activity % (negative = inhibition) read?
Answer: inactive: 5.15% [at 77.1 µM]

Question: With `COCc1ccc2c(c1)c(OC(C)(C)C(=O)NCC1CCOCC1)nn2Cc1ccccc1` as the compound, how does the activity % (negative = inhibition) read?
Answer: inactive: 0.585%

Question: For `C[C@H]1[C@@H]2[C@@H](O)C([C@H](C)C(=O)NCc3ccc(F)cc3)CC[C@@]2(C)CC[C@@H]1NC(=O)Cc1ccccc1` (some centres undefined), which activity % (negative = inhibition) is on record?
Answer: inactive: -10.4%

Question: How did the activity % (negative = inhibition) turn out when `COc1ccc(CCN2CCC(CN(C)C(=O)C3CCCCO3)CC2)cc1` (centres undefined) was run?
Answer: inactive: -3.11%

Question: With `CNc1nc2c(s1)C[C@]1(C)CCC([C@H](C)C(=O)N3CCSCC3)[C@H](O)[C@H]1[C@@H]2C` (some centres undefined) as the compound, how does the activity % (negative = inhibition) read?
Answer: inactive: -6.32% [at 57.5 µM]

Question: Which activity % (negative = inhibition) does the source give for `O=C(c1ccccc1)N1CCCN(c2nc3ncccc3o2)CC1` here?
Answer: inactive: 19.8% [at 57.5 µM]

Question: For `CCCNC(=O)N1CC(Oc2ccc(-c3nc(C)no3)cc2)C1`, which activity % (negative = inhibition) is on record?
Answer: inactive: 17%

Question: `COc1ccc(CNC(=O)C[C@@H]2O[C@H](CNCc3cccc(Cl)c3)[C@@H](O)[C@H]2O)cc1` was tested. Which activity % (negative = inhibition) did it give?
Answer: inactive: 3.73% [at 57.5 µM]
